The values that follow come from BindingDB's records for PubMed 1464308 (Cnrs, 1992).

Sequences of proteins named here, by UniProt entry; tags and fusion partners are left off.
UniProt P30966, whole entry: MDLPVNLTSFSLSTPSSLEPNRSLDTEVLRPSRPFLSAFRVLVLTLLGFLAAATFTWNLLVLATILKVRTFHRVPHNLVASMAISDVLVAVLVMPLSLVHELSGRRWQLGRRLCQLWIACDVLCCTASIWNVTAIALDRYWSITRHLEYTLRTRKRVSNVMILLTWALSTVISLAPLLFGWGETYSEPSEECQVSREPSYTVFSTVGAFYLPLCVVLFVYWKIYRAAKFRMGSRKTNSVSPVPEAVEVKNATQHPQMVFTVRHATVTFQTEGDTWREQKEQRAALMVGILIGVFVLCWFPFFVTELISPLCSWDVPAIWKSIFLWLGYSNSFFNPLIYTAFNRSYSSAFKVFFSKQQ

Molecules are shown by their SMILES. A value given as a limit tells only on which side of the number the result lay.

The target of the test is 5-hydroxytryptamine receptor 5A (Mus musculus, UniProt P30966).

The term Ki denotes the equilibrium dissociation constant of an inhibitor or competing ligand from its target. `CC(C)NC[C@H](O)COc1cccc2ccccc12` [Propanolol,(+/-)] showed an inhibitory constant (Ki) of over 10 µM.
